Test results: paper PMC5760577
Results are given in words; binding and its absence hold for the method and conditions named. In cells and extracts the contact can be indirect. Some entries that bind do so weakly or less than the wild type. For part of these data: Where a sequence is shown, tags or fusion partners need not be part of it. Blank lines part the entries; values can stand above or below the molecule they belong to.

By UniProt entry, the sequences of proteins in these tests, tags left out. Where a name states a change or a piece, a line headed by the entry shows the natural chain unless it says otherwise.
UniProt Q8N6T7: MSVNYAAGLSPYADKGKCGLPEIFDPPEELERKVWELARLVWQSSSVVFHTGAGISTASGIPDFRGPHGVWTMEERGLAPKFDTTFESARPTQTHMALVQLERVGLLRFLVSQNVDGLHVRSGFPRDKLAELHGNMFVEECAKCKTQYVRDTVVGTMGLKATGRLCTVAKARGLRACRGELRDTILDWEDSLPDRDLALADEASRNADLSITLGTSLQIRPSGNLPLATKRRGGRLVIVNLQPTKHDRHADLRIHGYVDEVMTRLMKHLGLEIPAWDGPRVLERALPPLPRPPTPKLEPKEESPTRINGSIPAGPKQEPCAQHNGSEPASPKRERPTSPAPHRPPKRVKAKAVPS
UniProt Q13309: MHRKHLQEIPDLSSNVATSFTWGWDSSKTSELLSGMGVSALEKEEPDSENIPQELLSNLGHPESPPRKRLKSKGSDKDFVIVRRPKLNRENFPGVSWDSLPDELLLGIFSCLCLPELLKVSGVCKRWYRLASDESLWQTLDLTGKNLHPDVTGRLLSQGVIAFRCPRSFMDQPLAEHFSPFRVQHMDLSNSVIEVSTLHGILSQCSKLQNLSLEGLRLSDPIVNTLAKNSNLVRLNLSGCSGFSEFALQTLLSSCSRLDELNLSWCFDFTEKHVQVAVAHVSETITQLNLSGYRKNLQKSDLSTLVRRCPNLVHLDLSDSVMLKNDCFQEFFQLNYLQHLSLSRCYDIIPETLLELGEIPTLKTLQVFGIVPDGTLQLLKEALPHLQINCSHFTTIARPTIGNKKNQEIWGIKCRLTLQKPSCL
UniProt Q04206: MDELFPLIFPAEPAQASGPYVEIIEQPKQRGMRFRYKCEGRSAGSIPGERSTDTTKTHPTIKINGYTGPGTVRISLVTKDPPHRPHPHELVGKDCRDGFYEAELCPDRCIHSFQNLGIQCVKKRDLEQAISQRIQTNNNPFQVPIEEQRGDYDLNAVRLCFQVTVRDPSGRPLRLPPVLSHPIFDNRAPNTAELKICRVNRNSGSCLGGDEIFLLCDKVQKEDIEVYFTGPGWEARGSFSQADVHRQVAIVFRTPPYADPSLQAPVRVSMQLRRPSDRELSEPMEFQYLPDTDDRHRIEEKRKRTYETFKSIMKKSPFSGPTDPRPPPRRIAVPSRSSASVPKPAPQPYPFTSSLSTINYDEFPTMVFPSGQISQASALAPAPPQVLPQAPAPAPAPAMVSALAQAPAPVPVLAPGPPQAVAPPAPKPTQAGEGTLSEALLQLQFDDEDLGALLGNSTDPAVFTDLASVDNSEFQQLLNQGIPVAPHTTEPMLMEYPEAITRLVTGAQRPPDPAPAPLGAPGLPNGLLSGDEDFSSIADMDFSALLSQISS
UniProt Q96KQ7: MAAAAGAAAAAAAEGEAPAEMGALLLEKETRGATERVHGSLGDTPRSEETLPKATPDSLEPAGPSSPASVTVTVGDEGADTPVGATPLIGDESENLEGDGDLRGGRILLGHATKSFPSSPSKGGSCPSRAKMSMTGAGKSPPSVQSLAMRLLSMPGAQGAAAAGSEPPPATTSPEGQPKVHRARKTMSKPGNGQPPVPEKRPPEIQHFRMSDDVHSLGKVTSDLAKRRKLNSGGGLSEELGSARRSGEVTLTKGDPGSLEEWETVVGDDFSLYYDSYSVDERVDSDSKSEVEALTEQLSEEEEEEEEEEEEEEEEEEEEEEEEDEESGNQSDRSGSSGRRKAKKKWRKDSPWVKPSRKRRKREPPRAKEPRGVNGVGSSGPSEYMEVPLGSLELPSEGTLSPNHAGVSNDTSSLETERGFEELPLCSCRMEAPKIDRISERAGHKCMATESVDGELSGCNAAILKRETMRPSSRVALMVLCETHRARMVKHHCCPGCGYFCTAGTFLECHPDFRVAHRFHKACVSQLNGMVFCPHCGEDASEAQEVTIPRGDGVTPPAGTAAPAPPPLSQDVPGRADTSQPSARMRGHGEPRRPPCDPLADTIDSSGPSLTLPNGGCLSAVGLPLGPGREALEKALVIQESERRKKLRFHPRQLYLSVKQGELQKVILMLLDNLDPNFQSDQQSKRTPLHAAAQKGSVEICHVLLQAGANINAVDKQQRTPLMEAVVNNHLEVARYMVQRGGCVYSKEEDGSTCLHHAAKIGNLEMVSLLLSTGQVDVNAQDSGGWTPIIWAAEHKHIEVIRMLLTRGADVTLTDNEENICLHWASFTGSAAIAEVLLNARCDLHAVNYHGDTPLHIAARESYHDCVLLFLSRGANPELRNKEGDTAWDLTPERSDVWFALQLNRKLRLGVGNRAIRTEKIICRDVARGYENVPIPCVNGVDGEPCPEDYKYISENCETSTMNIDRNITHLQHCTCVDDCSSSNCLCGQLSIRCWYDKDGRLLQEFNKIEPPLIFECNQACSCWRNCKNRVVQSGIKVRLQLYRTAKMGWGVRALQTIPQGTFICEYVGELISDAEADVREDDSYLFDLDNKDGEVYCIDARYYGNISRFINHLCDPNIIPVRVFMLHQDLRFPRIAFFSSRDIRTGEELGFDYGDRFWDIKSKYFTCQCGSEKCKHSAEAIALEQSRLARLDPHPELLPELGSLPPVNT

Key:
SirT6-HA = SirT6-HA (UniProt Q8N6T7); assay: co-IP; HA immunoprecipitation (α-HA resin) of extracts from 293F cells co-transfected with SirT6-HA and an H3K9 HMT or a Myc-tagged Suv39h1 deletion mutant; washes with BC100 and BC500 (500 mM KCl)
FLAG-SKP2 [1] = biological target: FLAG-SKP2 (UniProt Q13309); assay: co-IP; supplementary figures cited beside Fig. 5b (printed 'Supplementary Figure 5b, c' and 'Supplementary Figure 6c'); constructs and format not shown
FLAG-SKP2 [2] = biological target: FLAG-SKP2 (UniProt Q13309); assay: co-IP; FLAG immunoprecipitation of extracts from 293F cells transfected with FLAG-SKP2 (or FLAG-Cul2) together with Myc-Suv39h1 or SirT6-HA
FLAG-RelA = FLAG-RelA (UniProt Q04206); assay: co-IP; anti-FLAG resin, extracts from 293F cells transfected with FLAG-RelA and Myc-Suv39h1, in presence or absence of TNFα

Molecule: RelA (as in the co-precipitation with SKP2) (from UniProt Q04206 1-551)
binding (FLAG-SKP2 [1]): binds

B1: Myc-tagged Suv39h1 deletion mutant with the SET and POST-SET domains (the last 172 residues) (domain or fragment, UniProt O54864 240-412)
chain: GIRYDLCIFRTNDGRGWGVRTLEKIRKNSFVMEYVGEIITSEEAERRGQIYDRQGATYLFDLDYVEDVYTVDAAYYGNISHFVNHSCDPNLQVYNVFIDNLDERLPRIAFFATRTIWAGEELTFDYNMQVDPVDMESTRMDSNFGLAGLPGSPKKRVRIECKCGTTACRKYLF
binding (SirT6-HA): binds

The remaining lines, values ahead:

binding (SirT6-HA): binds
Molecule: G9a (from UniProt Q96KQ7 1-1210) (enzyme)

binding (FLAG-SKP2 [1]): binds
Molecule: SirT6 H133Y (from UniProt Q8N6T7 1-355) (enzyme)

binding (FLAG-SKP2 [2]): binds
binding (FLAG-SKP2 [1]): binds
Molecule: SirT6-HA (from UniProt Q8N6T7 1-355) (enzyme)

binding (FLAG-RelA): binds
binding (FLAG-SKP2 [2]): binds
binding (SirT6-HA): binds
B2: Myc-Suv39h1 full-length (enzyme, UniProt O54864 1-412)
chain: MAENLKGCSVCCKSSWNQLQDLCRLAKLSCPALGVSKKNLYDFEVEYLCDYKKIREQEYYLVKWRGYPDSENTWEPRQNLKCIRVLKQFHKDLERELVRRHRRSKPPRHLDPNLANYLVQKAKQRRALQRWEQELNAKRSHLGRITVENEVDLDGPPRSFVYINEYRVGEGITLNQVAVGCECQDCLLAPTGGCCPGASLHKFAYNDQGQVRLKAGQPIYECNSRCCCGYDCPNRVVQKGIRYDLCIFRTNDGRGWGVRTLEKIRKNSFVMEYVGEIITSEEAERRGQIYDRQGATYLFDLDYVEDVYTVDAAYYGNISHFVNHSCDPNLQVYNVFIDNLDERLPRIAFFATRTIWAGEELTFDYNMQVDPVDMESTRMDSNFGLAGLPGSPKKRVRIECKCGTTACRKYLF
